These are yes or no findings as the source states them, for the method shown. Some binding calls cover weakened binding; strength is not graded here. Sequences can lack the tags named with a protein.
Experiments:
Assay in all cases: far-Western, overlay or dot blot; 500 ng of total cell lysates of induced E. coli BL21 Star (DE3) expressing the His-tagged proteins (5 μg, 10x concentrated, for FlaAΔND0 and FlaAΔND1) separated by SDS-PAGE, on nitrocellulose; probed with 50 μg of purified GST-FliS, GST-FliW or GST in 2% skim milk TBS-T; anti-GST detection; only the binder purified
[1] = target: T1, His-tagged RacR protein of C. jejuni (C. jejuni) (UniProt O68795)
T1 sequence: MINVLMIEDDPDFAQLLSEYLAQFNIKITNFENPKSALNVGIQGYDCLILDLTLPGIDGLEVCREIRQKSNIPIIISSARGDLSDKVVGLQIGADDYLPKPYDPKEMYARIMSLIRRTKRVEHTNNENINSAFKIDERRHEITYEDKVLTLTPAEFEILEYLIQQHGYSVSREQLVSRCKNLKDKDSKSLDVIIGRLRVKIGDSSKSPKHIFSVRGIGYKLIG

Amino acid sequences for entries named in this document (tags omitted).
UniProt P22251: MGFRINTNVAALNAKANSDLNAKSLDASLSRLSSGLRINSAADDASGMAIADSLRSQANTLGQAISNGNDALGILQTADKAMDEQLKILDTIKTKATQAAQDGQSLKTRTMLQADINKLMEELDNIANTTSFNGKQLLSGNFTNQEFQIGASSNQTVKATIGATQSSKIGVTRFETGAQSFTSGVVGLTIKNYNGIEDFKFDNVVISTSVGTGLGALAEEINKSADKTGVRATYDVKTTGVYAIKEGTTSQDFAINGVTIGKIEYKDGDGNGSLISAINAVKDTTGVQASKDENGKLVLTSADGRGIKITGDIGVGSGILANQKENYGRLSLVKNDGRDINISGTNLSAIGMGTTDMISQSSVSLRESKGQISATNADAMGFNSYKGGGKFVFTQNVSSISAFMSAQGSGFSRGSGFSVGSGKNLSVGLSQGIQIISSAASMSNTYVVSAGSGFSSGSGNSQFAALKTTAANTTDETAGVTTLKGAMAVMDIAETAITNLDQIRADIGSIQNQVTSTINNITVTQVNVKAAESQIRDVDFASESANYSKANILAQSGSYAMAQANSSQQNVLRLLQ
UniProt P22252: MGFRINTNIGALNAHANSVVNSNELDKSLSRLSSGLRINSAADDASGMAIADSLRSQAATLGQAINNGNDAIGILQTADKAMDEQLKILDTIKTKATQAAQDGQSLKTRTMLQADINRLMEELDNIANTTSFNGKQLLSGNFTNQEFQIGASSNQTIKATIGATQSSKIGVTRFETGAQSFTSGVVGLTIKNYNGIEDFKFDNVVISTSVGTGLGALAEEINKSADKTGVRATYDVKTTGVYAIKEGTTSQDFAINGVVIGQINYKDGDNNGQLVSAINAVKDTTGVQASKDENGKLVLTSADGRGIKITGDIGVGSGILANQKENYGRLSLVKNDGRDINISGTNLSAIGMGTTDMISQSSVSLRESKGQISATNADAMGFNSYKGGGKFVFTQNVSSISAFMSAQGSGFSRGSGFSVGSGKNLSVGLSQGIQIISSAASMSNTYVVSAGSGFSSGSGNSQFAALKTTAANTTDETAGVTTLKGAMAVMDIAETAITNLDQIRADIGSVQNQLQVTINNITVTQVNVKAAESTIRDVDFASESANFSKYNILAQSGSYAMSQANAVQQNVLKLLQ

[2] = target: recombinant His-tagged FlaA flagellin of C. jejuni (non-glycosylated, E. coli-derived) (C. jejuni) (UniProt P22251)
[3] = target: recombinant His-tagged FlaB flagellin of C. jejuni (C. jejuni) (UniProt P22252)

B1: GST-tagged FliS of C. jejuni (protein, UniProt P0DPD3 1-128)
chain: MQNNLAYNAYSQNQAGIESPQKLIEMLYEGILRFCARAKVAIRNEDIEQRVYFVKRTTAIFIELINTLDYEKGGEVAHYLSGLYTREIQLLSLANLENNEDRINEVINVTKGLLEAWREVHNNETVAQ
In the case of B1, the binding [1] is reported as “no binding (tested: 50 μg of probe)”, the binding [2] is reported as “binds” and the binding [3] is reported as “binds”.
